Source: PubChem BioAssay AID651640 (Broad Institute, 2012)
Screen size: about 350,000 compounds; about 6,000 (1.7%) were called active. Inconclusive means that the source gave no clear call. Such entries were picked first, then a sample of the others. Cut-off read from the data, not from the text of the source: active = CPE inhibition above about 20% (passing the limit was not always enough); inconclusive = no clear call, values can overlap the other calls; tested in BHK-21 cells.

Experiment: protection of cells from dengue 2 killing – plate reader, single concentration, primary screen (AID 651640);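 note: 0% = median of neutral control wells and 100% = median of positive control wells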
Details: DENV2-infected cells, cytopathic effect rescue, at 9.99 µM, stronger effect = higher value

| SMILES | CPE inhibition |
| --- | --- |
| C[C@H](O)C#Cc1ccc([C@H]2[C@@H](CO)N3CCCCN(C(=O)c4ccc(F)cc4)C[C@@H]23)cc1 | active: 33.5% |
| N#C[C@H]1[C@@H](c2ccc(C#Cc3ccccc3F)cc2)[C@@H](CO)N1C(=O)C1CCCC1 | active: 32.9% |
| Brc1ccc(-c2ccc3c(n2)CCCN3Cc2ccccn2)cc1 | inconclusive: 34.3% |
| CC(C)C(=O)Nc1ccc2c(c1)C(=O)N(C)[C@H]1CC[C@H](CC(=O)NCc3ccccc3)O[C@H]1CO2 | inactive: -1.07% |
| CC(C)(C)[S@@](=O)N1Cc2cc(C(=O)NCc3ccc4c(c3)OCO4)nc(-c3cccc(-c4cccnc4)c3)c2[C@H]1CCO | inactive: -1.38% |
| CCCN1CCC(N(CCc2ccccc2)Cc2ccccc2)CC1 | inactive: 7.29% |
| O=C(NC[C@H]1[C@H](c2ccccc2)[C@@H](CO)N1Cc1cccnc1)c1ccccn1 | active: 37.9% |
| CC(=O)N(C)C[C@@H]1Oc2cc(-c3cncnc3)ccc2S(=O)(=O)N([C@H](C)CO)C[C@H]1C | inconclusive: 25.6% |
| COc1ccc(OC)c(Nc2cc3ccccc3c(=O)[nH]2)c1 | inconclusive: 49.9% |
| O=C(O)c1ccccc1C(=O)NCc1c(Cl)cccc1Sc1ccc(Cl)cc1 | active: 26.2% |
| O=C(C1CCN(c2ncnc3c2sc2cccc(F)c23)CC1)N1CCOCC1 | inconclusive: 28.7% |
| Nc1[nH]c(C(=O)c2ccc(Br)cc2)c(-c2cccc3ccccc23)c1C(=O)NCCc1c[nH]c2ccccc12 | inconclusive: 26.4% |
| C[C@@H]1CN([C@@H](C)CO)C(=O)c2cc(-c3cccnc3)cnc2O[C@@H]1CN(C)C(=O)c1ccccc1F | active: 45.9% |
| CCN(c1cc(C)cc(C)c1)S(=O)(=O)c1nnc(NC(=O)C(C)C)s1 | inconclusive: 27.4% |
| O=c1[nH][nH]c2c1[C@H](c1ccc(F)cc1)O[C@H](CCc1ccccc1)C2 | inconclusive: 42.1% |
| COc1ccccc1CNC(=O)C1CCCN1S(=O)(=O)c1cccc2cccnc12 (stereo not given) | inactive: 5.14% |
| CC=Cc1ccc2n(c1=O)C[C@@H]1[C@@H](CO)[C@H](C(=O)NC3CCCC3)N(CCC)[C@H]21 (mixture of isomers) | inconclusive: 37.7% |
| COc1ccc(C)cc1Nc1n[n+](-c2ccccc2)c(-c2ccc(OC)c(OC)c2OC)s1 | active: 92.3% |
| N#Cc1c(Nc2ccccc2)s[nH]c1=O | inactive: 2.92% |
| COc1ccccc1S(=O)(=O)N[C@H]1C=C[C@H](CC(=O)N2CCN(C)CC2)O[C@@H]1CO | inactive: 6.84% |
| O=C(Nc1ccc(F)cc1)Nc1ccc2c(c1)[C@H]1C[C@H](CC(=O)N3CCCCC3)O[C@@H](CO)[C@H]1O2 | active: 21.2% |
| O=S(=O)(Nc1ccccc1-c1ccccc1)c1ccccc1 | inconclusive: 46.9% |
| COC(=O)CN1C(=O)NC2(CCCc3ccccc32)C1=O (stereo not given) | inactive: -5.34% |
| C[C@H](CO)N1C[C@H](C)[C@@H](CN(C)S(=O)(=O)c2ccc(F)cc2)Oc2c(NC(=O)Nc3ccccc3)cccc2C1=O | inconclusive: 31.4% |

| SMILES | CPE inhibition |
| --- | --- |
| C[C@H](CO)N1C[C@H](C)[C@@H](CN(C)CC2CCCCC2)OCCCC[C@H](C)Oc2ccc(NC(=O)Nc3cccc4ccccc34)cc2C1=O | inactive: -24.7% |
| Cc1ccccc1S(=O)(=O)N1C[C@@H](O)COC[C@H]2O[C@H](CC(=O)N3CCN(C)CC3)CC[C@@H]21 | inactive: -4.05% |
| O=C(C[C@H]1C=C[C@H](NS(=O)(=O)c2ccc(F)cc2)[C@@H](CO)O1)NCc1ccncn1 | inconclusive: 26.5% |
| CNC[C@H]1OCCCC[C@@H](C)Oc2ccc(NC(=O)NC(C)C)cc2C(=O)N([C@@H](C)CO)C[C@@H]1C | inconclusive: 20.8% |
| Cc1ccc(S(=O)(=O)NCC(=O)NCC(=O)N(C)Cc2ccc3ccccc3c2)cc1C | inconclusive: 24.7% |
| C[C@@H]1CN([C@@H](C)CO)C(=O)c2cccc(NC(=O)c3cnccn3)c2O[C@@H]1CN(C)S(=O)(=O)c1cccs1 | inconclusive: 30.1% |
| C[C@H]1CCCCO[C@H](CN(C)C)[C@@H](C)CN([C@@H](C)CO)C(=O)c2cc(NC(=O)NC3CCCCC3)ccc2O1 | inconclusive: 90.4% |
| Cc1ccc(C)c(NC(=O)C2(C)CCCN2C(=O)C(C)C)c1 (stereo not given) | inconclusive: 58.9% |
| C=CCN1[C@@H](C)[C@@H](c2ccccc2)Oc2c(Cl)cccc2S1(=O)=O | inconclusive: 58.8% |
| CC(OC(=O)C1CC(=O)N(Cc2ccco2)C1)C(=O)Nc1ccc(F)cc1Cl (stereo not given) | inconclusive: 25.6% |
| COc1ccc(C(=O)NCCCN2CCN(CCCNC(=O)c3ccc(OC)c(OC)c3)CC2)cc1OC | inconclusive: 28.9% |
| CCOc1ccc(/C=N/NC(=O)c2ccc(F)cc2)cc1CN1CC2CC(C1)c1cccc(=O)n1C2 (stereo not given) | active: 20.3% |
| CCOC(=O)CC1=CCc2c1ccc(OC)c2OC | inconclusive: 27.8% |
| CCCC#Cc1ccc2c(c1)O[C@H](CN(C)Cc1ccncc1)[C@H](C)CN([C@@H](C)CO)S2(=O)=O | inactive: 5.6% |
| O=C(Cn1c(=O)oc2cc(S(=O)(=O)N3CCCCCC3)ccc21)NC1CCCCCCC1 | inconclusive: 23.3% |
| CC1CCN(C(=O)c2nc[nH]c2C(=O)OCCNC(=O)OC(C)(C)C)CC1 | inconclusive: 29% |
| O=C1N(c2ccccc2C(F)(F)F)O[C@@]1(c1ccccc1)C1CCCC1 | inconclusive: 59.7% |
| COc1ccc(-n2c(=S)[nH]c3cc(C(=O)NCCCN4CCOCC4)ccc3c2=O)cc1 | inconclusive: 27% |
| C[C@H](CO)N1C[C@H](C)[C@@H](CN(C)C(=O)Nc2ccc(-c3cccs3)cc2)OCc2cnnn2CCCC1=O | inconclusive: 40.7% |
| Cc1ccc(S(=O)(=O)Nc2ccc3c(c2)CC(=O)N([C@@H](C)CO)C[C@H](C)[C@@H](CN(C)C(=O)Nc2cccc4ccccc24)O3)cc1 | active: 32.8% |
| O=C(COC(=O)CNS(=O)(=O)c1c(Cl)cccc1Cl)Nc1ccccc1Sc1ccccc1 | inconclusive: 48.4% |
| C[C@@H]1CN([C@H](C)CO)C(=O)c2cc(C3=CCCCC3)cnc2O[C@H]1CN(C)C(=O)c1ccc(F)cc1 | inactive: 6.42% |
| O=c1c(O)c(-c2ccccc2)oc2cc(O)cc(O)c12 | inconclusive: 72.6% |
| O=C(O)c1cc(=O)c2c(OCC(O)COc3cccc4oc(C(=O)O)cc(=O)c34)cccc2o1 | active: 25.7% |

Three compounds from above, ordered by number of heavy atoms, falling:

| SMILES | CPE inhibition |
| --- | --- |
| O=C(O)c1cc(=O)c2c(OCC(O)COc3cccc4oc(C(=O)O)cc(=O)c34)cccc2o1 | active: 25.7% |
| O=C(Cn1c(=O)oc2cc(S(=O)(=O)N3CCCCCC3)ccc21)NC1CCCCCCC1 | inconclusive: 23.3% |
| CC1CCN(C(=O)c2nc[nH]c2C(=O)OCCNC(=O)OC(C)(C)C)CC1 | inconclusive: 29% |

Following part:

| SMILES | CPE inhibition |
| --- | --- |
| C[C@H](CO)N1C[C@H](C)[C@@H](CN(C)Cc2ccc(Cl)c(Cl)c2)Oc2c(NC(=O)NC3CCCCC3)cccc2C1=O | inconclusive: 21.1% |
| COc1ccc(NC(=O)CCc2nc3ccccc3[nH]2)cc1 | inconclusive: 43.9% |
| COc1ccccc1C#Cc1ccc2c(c1)O[C@H](CN(C)Cc1ccccc1)[C@@H](C)CN([C@H](C)CO)S2(=O)=O | inconclusive: 28% |
| Nc1ncnc2c1ncn2[C@@H]1O[C@H](C(=O)N[C@@H](CCc2ccccc2)C(=O)N2CCCN(Cc3cccs3)CC2)[C@@H](O)[C@H]1O | inactive: -8.03% |
| NC(=O)C1CCCN(C(=O)CNC(=O)C23CC4CC(CC(C4)C2)C3)C1 (stereo not given) | inconclusive: 50.3% |
| COCCCNC(=O)c1cccc2c(-c3cccc(C(N)=O)c3)coc12 | inactive: -8.77% |
| CC(C)[C@H]1COCCS(=O)(=O)N1Cc1ccccc1F | inconclusive: 67.1% |
| COc1ccc(S(=O)(=O)Nc2ccc3c(c2)C(=O)N([C@H](C)CO)C[C@@H](C)[C@H](CN(C)S(=O)(=O)c2c(C)noc2C)OCCCC[C@@H](C)O3)cc1 | inactive: -11% |
| O=C1NC[C@H](Cc2ccc(O)cc2)N(C[C@@H]2CCCN2C[C@H](Cc2ccc(O)cc2)N2C[C@H](Cc3ccccc3)N(CC3CCCCC3)C(=O)C2=O)C1=O | inconclusive: 24.8% |
| Cc1ccc(NC(=O)Nc2cnccn2)c(C)c1 | inconclusive: 23.3% |
| CCC(=O)N1C[C@@H](C)[C@@H](OC)CN(C)C(=O)c2cc(NC(=O)C3CCCCC3)ccc2OC[C@@H]1C | inactive: -0.492% |
| Cc1noc(C)c1NC(=O)N(C)C[C@@H]1Oc2cc(C#CCN(C)C)ccc2S(=O)(=O)N([C@H](C)CO)C[C@@H]1C | inconclusive: 28.1% |
| NCc1csc(NC(=O)Nc2cccc(Cl)c2)n1 | active: 25.4% |
| C[C@@H]1CN([C@@H](C)CO)C(=O)Cc2cc(NC(=O)CCCCCC(=O)Nc3ccccc3N)ccc2O[C@@H]1CN(C)Cc1ccc(Oc2ccccc2)cc1 | inconclusive: 32.5% |
| CN(C)CCNC(=O)c1cc2c(s1)-c1ccccc1OC2 | inactive: -4.51% |
| C[C@@H]1CN([C@@H](C)CO)C(=O)c2cc(NS(=O)(=O)c3ccccc3)ccc2O[C@@H](C)CCCCO[C@@H]1CN(C)S(=O)(=O)c1ccc(Cl)cc1 | inactive: 18.8% |
| Cc1nc([N+](=O)[O-])cn1CC(Cl)Cn1cc([N+](=O)[O-])nc1C | inconclusive: 56.3% |
| CCN(CC)CCNS(=O)(=O)c1ccc2[nH]cc(C(=O)O)c(=O)c2c1 | inconclusive: 22.9% |
| Cc1ccc(S(=O)(=O)CCC(=O)OCCOc2ccc(Br)cc2)cc1 | inconclusive: 26.9% |
| CCCCOc1ccc(NC(=O)CN2CCN(CC)CC2)cc1 | inconclusive: 21.6% |
| Cc1ccc(S(=O)(=O)Nc2cccc3c2O[C@@H](CN(C)C(=O)Nc2ccc4c(c2)OCO4)[C@@H](C)CN([C@H](C)CO)C3=O)cc1 | active: 22.2% |
| CCCNC(=O)C[C@@H]1CC[C@@H]2[C@H](COC[C@@H](O)CN2Cc2ccccc2F)O1 | inactive: -6.25% |
